Data source: PubChem BioAssay AID686937 (Drosophila RNAi Screening Center, 2013)
Aim: 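Genes in the fly needed for secretion of protein constitutively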 (primary screen). Cells: Drosophila S2 cells expressing secreted horseradish peroxidase. Reagents: long dsRNA against Drosophila genes. Duration: about 5.5 days (5 days dsRNA, then 12 h reporter induction). Conditions: reporter expression induced after 5 days of dsRNA, read 12 h later; inducer not stated. Read-out: 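After 5 days of dsRNA and 12 h of reporter induction, medium peroxidase read by chemiluminescence and scored as per-plate z-score; higher values mean more reporter released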. Scale: z-score: higher = more reporter secreted into medium.
In all, the deposit lists about 23,000 reagents; below is a random part of those with a known target gene and a result. 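Reduced-secretion tags in replicate 1 do not always agree with the z-scores; no criterion for assigning the tags was given.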 Not all columns of the deposit are shown. No sequences are given here. Not given: the amount of reagent.

{"gene knocked down": "Ppn (Papilin)", "dsRNA": "DRSC15328", "z-score, replicate 1": 0.3}
{"gene knocked down": "Elk (Eag-like K[+] channel)", "dsRNA": "DRSC07608", "z-score, replicate 1": 0.17}
{"gene knocked down": "Sb (Stubble)", "dsRNA": "DRSC16851", "z-score, replicate 1": 0.59}
{"gene knocked down": "CG4596", "dsRNA": "DRSC15608", "z-score, replicate 1": 0.41}
{"gene knocked down": "CG6665", "dsRNA": "DRSC07006", "z-score, replicate 1": 0.34}
{"gene knocked down": "CG6908", "dsRNA": "DRSC16131", "z-score, replicate 1": -0.06}
{"gene knocked down": "mle (maleless)", "dsRNA": "DRSC04921", "z-score, replicate 1": 0.2}
{"gene knocked down": "m (miniature)", "dsRNA": "DRSC20181", "z-score, replicate 1": 0.44}
{"gene knocked down": "CG3770", "dsRNA": "DRSC04416", "z-score, replicate 1": -0.18}
{"gene knocked down": "Alg-2 (Apoptosis-linked gene-2)", "dsRNA": "DRSC07799", "z-score, replicate 1": 0.06}
{"gene knocked down": "mRpS14 (mitochondrial ribosomal protein S14)", "dsRNA": "DRSC19444", "z-score, replicate 1": -0.37}
{"gene knocked down": "Ice1 (Interacts with the C terminus of ELL 1)", "dsRNA": "DRSC04191", "z-score, replicate 1": -4.64}
{"gene knocked down": "CG18467", "dsRNA": "DRSC06758", "z-score, replicate 1": -1.54}
{"gene knocked down": "PGRP-SD (Peptidoglycan recognition protein SD)", "dsRNA": "DRSC10856", "z-score, replicate 1": 0.19}
{"gene knocked down": "emp (epithelial membrane protein)", "dsRNA": "DRSC04019", "z-score, replicate 1": 0.03}
{"gene knocked down": "emp (epithelial membrane protein)", "dsRNA": "DRSC04683", "z-score, replicate 1": 0.29}
{"gene knocked down": "CG5498", "dsRNA": "DRSC11608", "z-score, replicate 1": 0.22}
{"gene knocked down": "CG31041", "dsRNA": "DRSC13951", "z-score, replicate 1": 0.34}
{"gene knocked down": "CG6707", "dsRNA": "DRSC10697", "z-score, replicate 1": 0.34}

Next part, starting with the last 5 of the part before.
{"gene knocked down": "emp (epithelial membrane protein)", "dsRNA": "DRSC04019", "z-score, replicate 1": 0.03}
{"gene knocked down": "emp (epithelial membrane protein)", "dsRNA": "DRSC04683", "z-score, replicate 1": 0.29}
{"gene knocked down": "CG5498", "dsRNA": "DRSC11608", "z-score, replicate 1": 0.22}
{"gene knocked down": "CG31041", "dsRNA": "DRSC13951", "z-score, replicate 1": 0.34}
{"gene knocked down": "CG6707", "dsRNA": "DRSC10697", "z-score, replicate 1": 0.34}
{"gene knocked down": "CG7492", "dsRNA": "DRSC10855", "z-score, replicate 1": 0.6}
{"gene knocked down": "RagA-B (Ras-related GTP binding A/B)", "dsRNA": "DRSC14450", "z-score, replicate 1": -0.2}
{"gene knocked down": "CG18662", "dsRNA": "DRSC02691", "z-score, replicate 1": 0.44}
{"gene knocked down": "Rab9Fb (Rab at 9Fb)", "dsRNA": "DRSC19854", "z-score, replicate 1": 0.34}
{"gene knocked down": "CG11878", "dsRNA": "DRSC14422", "z-score, replicate 1": 0.3}
{"gene knocked down": "JhI-21 (Juvenile hormone Inducible-21)", "dsRNA": "DRSC02161", "z-score, replicate 1": 0.15}
{"gene knocked down": "CG8034", "dsRNA": "DRSC20076", "z-score, replicate 1": -0.09}
{"gene knocked down": "CG31769", "dsRNA": "DRSC01361", "z-score, replicate 1": 0.11}
{"gene knocked down": "CG13204", "dsRNA": "DRSC06328", "z-score, replicate 1": 0.36}
{"gene knocked down": "CtsL1 (Cathepsin L1)", "dsRNA": "DRSC05462", "z-score, replicate 1": -0.03}
{"gene knocked down": "CtsL1 (Cathepsin L1)", "dsRNA": "DRSC07363", "z-score, replicate 1": 0.2}
{"gene knocked down": "CG7646", "dsRNA": "DRSC11232", "z-score, replicate 1": 0.04}
{"gene knocked down": "RabGGTb (Rab geranylgeranyltransferase subunit beta)", "dsRNA": "DRSC00804", "z-score, replicate 1": 0.41}
{"gene knocked down": "CG3795", "dsRNA": "DRSC18593", "z-score, replicate 1": 0.19}
{"gene knocked down": "XRCC1", "dsRNA": "DRSC18729", "z-score, replicate 1": 0.52}
{"gene knocked down": "CG14913", "dsRNA": "DRSC02397", "z-score, replicate 1": 0.4}
{"gene knocked down": "CG18213", "dsRNA": "DRSC15316", "z-score, replicate 1": 0.07}
{"gene knocked down": "GAA1 (Glycosylphosphatidylinositol anchor attachment 1)", "dsRNA": "DRSC18267", "z-score, replicate 1": 0.51}
{"gene knocked down": "CG7966", "dsRNA": "DRSC16356", "z-score, replicate 1": 0.18}
{"gene knocked down": "CG7049", "dsRNA": "DRSC08587", "z-score, replicate 1": 0.05}
{"gene knocked down": "Pex12 (Peroxin 12)", "dsRNA": "DRSC00622", "z-score, replicate 1": -0.37}
